Assay results as given in PubChem BioAssay AID1918944 (Molecular Pharmacology Branch, DTP, NCI, 2023).
Values joined by “and” are separate entries in the source; they are usually repeats but may differ in a detail not shown here. Identical values can stand only once. The source gives many values for each of these; only a part stands here.

System: 786-0 complex spheroid viability
Assay: Anticancer human tumor 786-0 cell line growth inhibition;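 note: spheroids exposed to agents for seven days before readout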
Details: hits give low values
From the text: Multicellular complex tumor spheroid response to LSD1 Inhibitor Iadademstat in combination with a variety of drugs and investigational agents in selected tumor cell lines
The current study was undertaken to assess response to LSD1 inhibitors in combination with standard-of-care drugs and investigational agents in solid tumor complex spheroid models as well as in the K-562 leukemia. Complex spheroids include a stromal component modeled by human endothelial cells (HUVEC) and fibroblasts modeled by human mesenchymal stem cells (MSCs). The concentration ranges selected for each drug and investigational agent were based upon clinically achievable concentrations if the clinical Cmax of the agent was known.
Compounds. The drugs and investigational agents used in this study are listed on Table 1. All of the agents used, including staurosporine (NSC755774) and gemcitabine (NSC613327), were obtained from the Developmental Therapeutics Program, NCI. FDA-approved anticancer drugs are available from the NCI at http://dtp.nci.nih.gov/branches/dscb/oncology_drugset_explanation.html. Drugs and investigational agents were >95% pure by proton nuclear magnetic resonance (NMR) and liquid chromatography/mass spectrometry (LC/MS). […] If the clinical Cmax for an agent had not been determined, the highest concentration tested was 10 microM. […]

NC1CCC(NC2CC2c2ccccc2)CC1 (configuration not stated)
viability, T/C (compound 0.316 µM): 118% [middle of 22 runs]
viability, T/C (compound 10 µM): 80.6% and 82%
